Values from PubChem BioAssay AID652243 (Drosophila RNAi Screening Center, 2013)
The deposit covers about 24,000 reagents; this is a random part of those that have a named target and a result. In the full data, 246 (1%) were called active. 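Plates not normalised; calls are printed but the firefly/Renilla ratio behind them is not deposited; fold cut for lowering reported inconsistently.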 Raw values are not corrected between plates. Reagents against one gene are numbered here. Not stated in the record: the amount of reagent.

- Purpose: 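Fly genes required for human androgen receptor driven transcription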 (primary screen)
- Cell system: Drosophila S2R+ cells
- Reagent: long dsRNA against Drosophila genes
- Duration: 72 h (48 h, then 24 h hormone)
- Challenge: synthetic androgen R1881 at 10 nM for 24 h
- Measurement: 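Firefly light from an androgen-responsive reporter and Renilla control light per well, raw and unnormalised, for each of two replicates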
- Reading the numbers: firefly reporter light: higher = more light from androgen-responsive reporter; Renilla control light: higher = more constitutive control signal (cell number, transfection)
- Hit rule: 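Across duplicate plates, a knock-down whose log firefly/Renilla ratio shifted a set fold down or up from the GFP/LacZ control mean was a hit; the downward cut appears as both 1.5 and 3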
- Meaning of the calls: active = hit: reporter lowered or raised; inactive = no hit

Gene	reagent	firefly reporter light, replicate 1	firefly reporter light, replicate 2	Renilla control light, replicate 1	Renilla control light, replicate 2	Outcome
CG15056	1	5.65e5	4.92e5	4.19e6	3.10e6	inactive
CG14115	1	2.71e5	2.30e5	2.25e6	2.19e6	inactive
hay	1	1.13e6	7.96e5	7.73e5	1.03e6	inactive
Mst57Dc	1	2.97e5	3.45e5	3.27e6	2.86e6	inactive
CG15452	1	2.52e5	1.75e5	9.61e5	7.04e5	inactive
CG8031	1	79282	37499	7.36e5	5.16e5	inactive
CG10802	1	1.11e5	1.28e5	1.15e6	9.80e5	inactive
CG10802	2	3.39e5	4.79e5	9.17e5	9.17e5	inactive
Ir11a	1	2.25e5	2.26e5	3.07e6	3.19e6	inactive
rho	1	1.30e5	1.15e5	1.05e6	1.26e6	inactive
tweek	1	1.56e5	1.71e5	1.82e6	2.42e6	inactive
tweek	2	1.38e5	1.63e5	1.51e6	1.72e6	inactive
tweek	3	8.24e5	8.79e5	3.52e5	3.62e5	inactive
MESR3	1	1.12e5	98679	1.41e6	1.17e6	inactive
CG15142	1	1.40e5	94000	1.61e6	1.08e6	inactive
Kdm3	1	1.09e5	1.52e5	1.55e6	2.37e6	inactive
Kdm3	2	6.49e5	5.24e5	1.72e6	1.59e6	inactive
Tab2	1	1.01e5	68461	1.38e6	1.21e6	inactive
Actbeta	1	8.62e5	5.84e5	8.54e5	5.27e5	inactive
Actbeta	2	4.77e5	3.77e5	3.61e6	3.38e6	inactive
CG12948	1	1.07e5	1.02e5	1.54e6	1.63e6	inactive
CG12948	2	6.88e5	2.84e5	2.05e6	1.14e6	inactive
Blimp-1	1	2.44e5	1.59e5	3.38e6	2.25e6	inactive
Blimp-1	2	5.62e5	7.78e5	8.06e5	1.07e6	inactive
CG31792	1	84895	71792	1.24e6	5.91e5	inactive
MsrA	1	2.67e5	1.78e5	2.50e6	1.59e6	inactive
RhoGAP71E	1	59771	39523	4.31e5	2.87e5	inactive
RhoGAP71E	2	2.16e5	2.17e5	1.56e6	1.91e6	inactive
RhoGAP71E	3	4.64e5	4.24e5	1.38e6	1.21e6	inactive
CG8545	1	9.70e5	5.71e5	1.98e6	1.24e6	inactive
Desat2	1	1.78e5	2.63e5	1.60e6	2.14e6	inactive
Desat2	2	3.62e5	4.64e5	7.43e5	7.17e5	inactive
Irbp	1	1.91e5	1.37e5	1.77e6	1.51e6	inactive
Irbp	2	7.39e5	8.71e5	1.16e6	1.36e6	inactive
Irbp	3	5.51e5	4.79e5	1.28e6	1.28e6	inactive
CtBP	1	99729	51816	4.02e5	3.71e5	inactive
CtBP	2	3.43e5	3.34e5	5.67e5	5.06e5	inactive
CG30288	1	6.59e5	5.27e5	2.05e6	1.68e6	inactive
CG30288	2	5.00e5	3.30e5	1.21e6	8.80e5	inactive
Nuf2	1	7.73e5	1.01e6	2.79e6	2.90e6	inactive
Fak	1	96834	81082	1.69e6	1.70e6	inactive
Fak	2	2.50e5	3.23e5	8.50e5	7.26e5	inactive
Fak	3					inactive
Fak	4					inactive
Mgtor	1	3.59e5	1.11e6	9.06e5	2.13e6	inactive
Asap	1	5.01e5	3.63e5	2.45e6	1.89e6	inactive
Asap	2	9.80e5	4.70e5	1.49e6	9.38e5	inactive
mthl8	1	7.49e5	7.64e5	1.62e6	1.38e6	inactive
mthl8	2	82330	94186	1.74e6	1.75e6	inactive
CG10814	1	1.88e6	1.66e6	2.67e6	2.74e6	inactive
Slob	1	2.47e5	2.00e5	1.81e6	1.22e6	inactive
Slob	2	3.79e5	6.39e5	1.62e6	2.23e6	inactive
Slob	3					inactive
Slob	4					inactive
CG16799	1	1.53e5	1.81e5	3.31e6	3.55e6	inactive
CG16799	2	1.26e6	1.07e6	2.57e6	1.88e6	inactive
CG3638	1	20773	17039	1.23e6	8.89e5	inactive
CG3638	2	8.79e5	1.05e6	9.32e5	1.06e6	inactive

A portion taken from the entries so far:
Gene	reagent	firefly reporter light, replicate 1	firefly reporter light, replicate 2	Renilla control light, replicate 1	Renilla control light, replicate 2	Outcome
CG10814	1	1.88e6	1.66e6	2.67e6	2.74e6	inactive
Slob	1	2.47e5	2.00e5	1.81e6	1.22e6	inactive
Slob	2	3.79e5	6.39e5	1.62e6	2.23e6	inactive
Slob	3					inactive
Slob	4					inactive
CG16799	1	1.53e5	1.81e5	3.31e6	3.55e6	inactive
CG16799	2	1.26e6	1.07e6	2.57e6	1.88e6	inactive
CG3638	1	20773	17039	1.23e6	8.89e5	inactive
CG3638	2	8.79e5	1.05e6	9.32e5	1.06e6	inactive
